“Also recorded” adds a separate entry of the source. Part of at least one peptide drawing is inferred or uncertain, most often the ends. Some compounds share one wording; it may come from a single statement. Ends that are not written are not given here.
Tested on: medullary pheochromocytoma (PC 12) cells
Assay: PC12 cell differentiation (morphology) assay
Type: cell-based
Conditions: for 1% FBS (differentiation of PC 12 cells) / 10% FBS (differentiation of PC 12 cells): evaluated six days after treatment; for Cell morphology: PC 12 cells, visual inspection by microscopy, morphologies listed per substance, alignment with concentration rows uncertain

DLEMPVLPVEPFPFV [SEQ ID NO:5, DLEMPVLPVEPFPFV]
1% FBS (differentiation of PC 12 cells) (0.1 µg/ml): - (- = ≤ 0.01% (back-ground)) | 10% FBS (differentiation of PC 12 cells) (0.1 µg/ml): - (- = ≤ 0.01% (back-ground)) | 1% FBS (differentiation of PC 12 cells) (1.0 µg/ml): - (- = ≤ 0.01% (back-ground)) | 10% FBS (differentiation of PC 12 cells) (1.0 µg/ml): - (- = ≤ 0.01% (back-ground)) | 1% FBS (differentiation of PC 12 cells) (10 µg/ml): - (- = ≤ 0.01% (back-ground)) | 1% FBS (differentiation of PC 12 cells) (100 µg/ml): - (- = ≤ 0.01% (back-ground)) | 10% FBS (differentiation of PC 12 cells) (100 µg/ml): + (+ = 1%) | Cell morphology: fibroblast-like; also recorded: epitheloid; also recorded: neuron-like

DQPPDVEKPDLQPFQVQS [SEQ ID NO:3, DQPPDVEKPDLQPFQVQS]
1% FBS (differentiation of PC 12 cells) (0.1 µg/ml): - (- = ≤ 0.01% (back-ground)) | 10% FBS (differentiation of PC 12 cells) (0.1 µg/ml): - (- = ≤ 0.01% (back-ground)) | 1% FBS (differentiation of PC 12 cells) (1.0 µg/ml): - (- = ≤ 0.01% (back-ground)) | 1% FBS (differentiation of PC 12 cells) (10 µg/ml): - (- = ≤ 0.01% (back-ground)) | 10% FBS (differentiation of PC 12 cells) (10 µg/ml): + (+ = 1%) | 1% FBS (differentiation of PC 12 cells) (100 µg/ml): - (- = ≤ 0.01% (back-ground)) | 10% FBS (differentiation of PC 12 cells) (100 µg/ml): + (+ = 1%) | Cell morphology: fibroblast-like; also recorded: neuron-like

LFFFLPVVNVLP [SEQ ID NO:4, LFFFLPVVNVLP]
1% FBS (differentiation of PC 12 cells) (0.1 µg/ml): - (- = ≤ 0.01% (back-ground)) | 10% FBS (differentiation of PC 12 cells) (0.1 µg/ml): - (- = ≤ 0.01% (back-ground)) | 1% FBS (differentiation of PC 12 cells) (1.0 µg/ml): - (- = ≤ 0.01% (back-ground)) | 10% FBS (differentiation of PC 12 cells) (1.0 µg/ml): + (+ = 1%) | 1% FBS (differentiation of PC 12 cells) (10 µg/ml): - (- = ≤ 0.01% (back-ground)) | 10% FBS (differentiation of PC 12 cells) (10 µg/ml): ++ (++ = 1-5%) | 1% FBS (differentiation of PC 12 cells) (100 µg/ml): - (- = ≤ 0.01% (back-ground)) | 10% FBS (differentiation of PC 12 cells) (100 µg/ml): ++ (++ = 1-5%) | Cell morphology: fibroblast-like; also recorded: epitheloid; also recorded: neuron-like

LKPFPKLKVEVFPFP [SEQ ID NO:8, LKPFPKLKVEVFPFP]
1% FBS (differentiation of PC 12 cells) (0.1 µg/ml): - (- = ≤ 0.01% (back-ground)) | 10% FBS (differentiation of PC 12 cells) (0.1 µg/ml): - (- = ≤ 0.01% (back-ground)) | 1% FBS (differentiation of PC 12 cells) (1.0 µg/ml): - (- = ≤ 0.01% (back-ground)) | 10% FBS (differentiation of PC 12 cells) (1.0 µg/ml): ++ (++ = 1-5%) | 1% FBS (differentiation of PC 12 cells) (10 µg/ml): - (- = ≤ 0.01% (back-ground)) | 10% FBS (differentiation of PC 12 cells) (10 µg/ml): + (+ = 1%) | 1% FBS (differentiation of PC 12 cells) (100 µg/ml): - (- = ≤ 0.01% (back-ground)) | 10% FBS (differentiation of PC 12 cells) (100 µg/ml): - (- = ≤ 0.01% (back-ground)) | Cell morphology: fibroblast-like; also recorded: neuron-like

LQTPQPLLQVMMEPQGD [SEQ ID NO:2, LQTPQPLLQVMMEPQGD]
1% FBS (differentiation of PC 12 cells) (0.1 µg/ml): - (- = ≤ 0.01% (back-ground)) | 1% FBS (differentiation of PC 12 cells) (1.0 µg/ml): - (- = ≤ 0.01% (back-ground)) | 10% FBS (differentiation of PC 12 cells) (1.0 µg/ml): ++ (++ = 1-5%) | 1% FBS (differentiation of PC 12 cells) (10 µg/ml): + (+ = 1%) | 10% FBS (differentiation of PC 12 cells) (10 µg/ml): ++ (++ = 1-5%) | 1% FBS (differentiation of PC 12 cells) (100 µg/ml): - (- = ≤ 0.01% (back-ground)) | 10% FBS (differentiation of PC 12 cells) (100 µg/ml): + (+ = 1%) | Cell morphology: fibroblast-like; also recorded: neuron-like

MPQNFYKLPQM [SEQ ID NO:6, MPQNFYKLPQM]
1% FBS (differentiation of PC 12 cells) (0.1 µg/ml): - (- = ≤ 0.01% (back-ground)) | 10% FBS (differentiation of PC 12 cells) (0.1 µg/ml): - (- = ≤ 0.01% (back-ground)) | 1% FBS (differentiation of PC 12 cells) (1.0 µg/ml): - (- = ≤ 0.01% (back-ground)) | 1% FBS (differentiation of PC 12 cells) (10 µg/ml): - (- = ≤ 0.01% (back-ground)) | 10% FBS (differentiation of PC 12 cells) (10 µg/ml): + (+ = 1%) | 1% FBS (differentiation of PC 12 cells) (100 µg/ml): - (- = ≤ 0.01% (back-ground)) | 10% FBS (differentiation of PC 12 cells) (100 µg/ml): + (+ = 1%) | Cell morphology: fibroblast-like; also recorded: epitheloid

MQPPPLP [SEQ ID NO:1, MQPPPLP]
1% FBS (differentiation of PC 12 cells) (0.1 µg/ml): - (- = ≤ 0.01% (back-ground)) | 1% FBS (differentiation of PC 12 cells) (1.0 µg/ml): - (- = ≤ 0.01% (back-ground)) | 10% FBS (differentiation of PC 12 cells) (1.0 µg/ml): + (+ = 1%) | 1% FBS (differentiation of PC 12 cells) (10 µg/ml): - (- = ≤ 0.01% (back-ground)) | 10% FBS (differentiation of PC 12 cells) (10 µg/ml): ++ (++ = 1-5%) | 1% FBS (differentiation of PC 12 cells) (100 µg/ml): - (- = ≤ 0.01% (back-ground)) | Cell morphology: epitheloid; also recorded: neuron-like

VESYVPLFP [SEQ ID NO:31, VESYVPLFP]
10% FBS (differentiation of PC 12 cells) (0.1 µg/ml): - (- = ≤ 0.01% (back-ground)) | 1% FBS (differentiation of PC 12 cells) (1.0 µg/ml): - (- = ≤ 0.01% (back-ground)) | 1% FBS (differentiation of PC 12 cells) (10 µg/ml): - (- = ≤ 0.01% (back-ground)) | Cell morphology: fibroblast-like; also recorded: neuron-like

VLEMKFPPPPQETVT [SEQ ID NO:7, VLEMKFPPPPQETVT]
1% FBS (differentiation of PC 12 cells) (0.1 µg/ml): - (- = ≤ 0.01% (back-ground)) | 10% FBS (differentiation of PC 12 cells) (0.1 µg/ml): - (- = ≤ 0.01% (back-ground)) | 1% FBS (differentiation of PC 12 cells) (1.0 µg/ml): - (- = ≤ 0.01% (back-ground)) | 10% FBS (differentiation of PC 12 cells) (1.0 µg/ml): + (+ = 1%) | 1% FBS (differentiation of PC 12 cells) (10 µg/ml): - (- = ≤ 0.01% (back-ground)) | 10% FBS (differentiation of PC 12 cells) (10 µg/ml): + (+ = 1%) | 1% FBS (differentiation of PC 12 cells) (100 µg/ml): - (- = ≤ 0.01% (back-ground)) | Cell morphology: fibroblast-like; also recorded: neuron-like

— patent EP1238058B1, “USE OF COLOSTRININ, CONSTITUENT PEPTIDES AND ANALOGS THEREOF TO PROMOTE NEURAL CELL DIFFERENTIATION” (THE UNIVERSITY OF TEXAS SYSTEM, priority 1999, dated 2007)
